{
  "sequences": {"note": "Amino acid sequences for entries named in this document (tags omitted).", "UniProt P18054, whole entry, looked up": "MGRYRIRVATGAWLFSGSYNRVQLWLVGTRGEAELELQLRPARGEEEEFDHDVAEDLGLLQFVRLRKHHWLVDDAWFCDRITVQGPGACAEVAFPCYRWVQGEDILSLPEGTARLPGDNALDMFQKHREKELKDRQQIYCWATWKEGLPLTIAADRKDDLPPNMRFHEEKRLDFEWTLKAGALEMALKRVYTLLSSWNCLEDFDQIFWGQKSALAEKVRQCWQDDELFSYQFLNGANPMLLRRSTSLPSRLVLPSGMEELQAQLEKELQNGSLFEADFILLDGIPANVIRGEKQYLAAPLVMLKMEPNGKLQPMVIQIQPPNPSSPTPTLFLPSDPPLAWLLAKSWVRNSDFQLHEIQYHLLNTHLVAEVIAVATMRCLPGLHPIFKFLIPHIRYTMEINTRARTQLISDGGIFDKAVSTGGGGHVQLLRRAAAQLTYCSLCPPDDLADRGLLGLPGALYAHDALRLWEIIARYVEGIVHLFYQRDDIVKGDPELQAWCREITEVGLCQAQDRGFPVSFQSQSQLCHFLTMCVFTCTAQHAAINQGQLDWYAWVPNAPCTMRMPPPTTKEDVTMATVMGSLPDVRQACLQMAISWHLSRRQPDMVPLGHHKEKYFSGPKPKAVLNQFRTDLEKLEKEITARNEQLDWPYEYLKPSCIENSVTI"},
  "source": "PubChem BioAssay AID1671190",
  "about": "(National Center for Advancing Translational Sciences (NCATS), 2021)",
  "note": "In all, about 580,000 compounds went through this assay and about 6,100 (1.1%) were called active. This list was built around the results that the source calls inconclusive (neither active nor inactive); the mix of calls is not that of the screen. Calls follow the shape of the dose curve; as a rule, active = well fitted inhibition curve with a large enough effect; inconclusive = small, poorly fitted or top-dose-only effect, or another doubt; inactive = no such curve, though single readings can be large or run the other way. Potencies beside an inconclusive call are fits to weak or partial responses and may not hold up. % is scaled to controls: 0 for no effect and ±100 for the full control effect; potency is read from the fitted curve at half-maximal effect.",
  "data": [
    {"target": "Polyunsaturated fatty acid lipoxygenase ALOX12 (Homo sapiens) (UniProt P18054)", "assay": "Primary qHTS assay for inhibitors of human arachidonate 12S-lipoxygenase (ALOX12): Round 2", "conditions": "purified 12hLO, xylenol orange hydroperoxide absorbance; activity change, negative = inhibition: at 108 µM (top of the series) unless noted", "method_in_brief": "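Hydroperoxide product was detected by ferrous iron/xylenol orange as the 573 to 405 nm absorbance ratio. Arachidonic acid at 40 uM (final) was turned over for 30 min at room temperature by 150 nM human 12hLO, pH 7.0 Hepes buffer, after 15 min compound preincubation.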", "values": [
      {"smiles": "COc1cc(C2/C(=C(\\O)c3ccc4c(c3)OCCO4)C(=O)C(=O)N2CCN2CCOCC2)cc(OC)c1OC", "note": "(centres undefined)", "Potency": "inconclusive: 3.98 µM [inhibitor, single point]"},
      {"smiles": "CCc1ccc2c(CN3CCN(S(=O)(=O)c4ccccc4F)CC3)cc(=O)oc2c1", "Potency": "inconclusive: 79.4 µM [inhibitor, single point]"},
      {"smiles": "COc1ccc([N+](=O)[O-])cc1C(=O)NCCOc1ccc(Cl)cc1", "Potency": "inconclusive: 35.5 µM [inhibitor, single point]"},
      {"smiles": "Cc1ccccc1C(=O)N1CCN(c2oc(-c3ccco3)nc2C#N)CC1", "Potency": "inconclusive: 112 µM [inhibitor, partial curve, poor fit]"},
      {"smiles": "CC(C)Cn1c(/C=C/c2ccco2)nc2ccccc21", "Potency": "inconclusive: 50.1 µM [inhibitor, partial curve, poor fit]"},
      {"smiles": "O=C(CCCNC(=O)c1ccc(Cl)cc1)Nc1ccc(F)c(S(=O)(=O)N2CCOCC2)c1", "Potency": "inconclusive: 79.4 µM [inhibitor, single point]"},
      {"smiles": "O=C1N=C(N2CCOCC2)S/C1=C\\c1cccs1", "Potency": "inactive"},
      {"smiles": "CCOC(=O)N1CCN(C(=O)c2ccccc2NC(=O)COc2ccccc2)CC1", "Potency": "inactive"},
      {"smiles": "CC1(C)CC(=O)C2=C(C1)N(c1ccccc1)C(N)=C(C#N)C2c1cccnc1", "note": "(centres undefined)", "Potency": "inconclusive: 31.6 µM [inhibitor, partial curve, poor fit]"},
      {"smiles": "COC(=O)CSc1nc2sc3c(c2c(=O)n1-c1ccc(C)cc1)CC(C(C)C)OC3", "note": "(centres undefined)", "Potency": "inactive"},
      {"smiles": "O=C(CCCSc1nc2ccccc2[nH]1)NCc1ccco1", "Potency": "inconclusive: 44.7 µM [inhibitor, partial curve, poor fit]"},
      {"smiles": "CCOC(=O)C1=C(COC(=O)c2cccnc2SC)NC(=O)NC1C", "note": "(centres undefined)", "Potency": "inconclusive: 126 µM [inhibitor, single point]"},
      {"smiles": "C[C@H]1CN([C@@H](C)CO)C(=O)CCCn2nncc2CO[C@@H]1CN(C)C(=O)c1ccccc1", "Potency": "inactive"},
      {"smiles": "CC(C)CCN1CCn2c(nnc2-c2ccccc2)C1", "activity change, negative = inhibition": "inactive: 14.2% [at 12.5 µM]"},
      {"smiles": "Cc1ccccc1C1C=C(c2ccccc2)OC(c2ccccc2)=C1C=O", "note": "(centres undefined)", "Potency": "active: 5.62 µM"},
      {"smiles": "Cc1onc(NC(=O)NC(=O)c2c(F)cccc2Cl)c1Br", "Potency": "inconclusive: 14.1 µM [inhibitor, partial curve, poor fit]"},
      {"smiles": "CN1CCC(OC2CCN(C(=O)c3ccc(Cl)s3)CC2)CC1", "Potency": "inactive"},
      {"smiles": "O=C(Nc1nc2ccccc2s1)c1ccc(N2CCCCC2)c([N+](=O)[O-])c1", "Potency": "inconclusive: 50.1 µM [inhibitor, partial curve, poor fit]"},
      {"smiles": "Cn1nc(C(=O)NC2CCc3nn(CC4CC4)c(=O)n3CC2)c2ccccc21", "note": "(centres undefined)", "Potency": "inactive"}
    ]}
  ]
}
